Laboratory results: patent publication US6893821B2, “Agents that modulate DNA-PK activity and methods of use thereof” (The Regents of the University of California, priority 2000, dated 2005)
At least one structure is not confirmed: it was looked up by name or label, or the drawing left a doubt.

Protein sequences, listed by entry. Tags and fused reporters are not part of them. Lines headed by an entry give the natural chain unless they say otherwise; changes in a name come on top.
UniProt Q13315: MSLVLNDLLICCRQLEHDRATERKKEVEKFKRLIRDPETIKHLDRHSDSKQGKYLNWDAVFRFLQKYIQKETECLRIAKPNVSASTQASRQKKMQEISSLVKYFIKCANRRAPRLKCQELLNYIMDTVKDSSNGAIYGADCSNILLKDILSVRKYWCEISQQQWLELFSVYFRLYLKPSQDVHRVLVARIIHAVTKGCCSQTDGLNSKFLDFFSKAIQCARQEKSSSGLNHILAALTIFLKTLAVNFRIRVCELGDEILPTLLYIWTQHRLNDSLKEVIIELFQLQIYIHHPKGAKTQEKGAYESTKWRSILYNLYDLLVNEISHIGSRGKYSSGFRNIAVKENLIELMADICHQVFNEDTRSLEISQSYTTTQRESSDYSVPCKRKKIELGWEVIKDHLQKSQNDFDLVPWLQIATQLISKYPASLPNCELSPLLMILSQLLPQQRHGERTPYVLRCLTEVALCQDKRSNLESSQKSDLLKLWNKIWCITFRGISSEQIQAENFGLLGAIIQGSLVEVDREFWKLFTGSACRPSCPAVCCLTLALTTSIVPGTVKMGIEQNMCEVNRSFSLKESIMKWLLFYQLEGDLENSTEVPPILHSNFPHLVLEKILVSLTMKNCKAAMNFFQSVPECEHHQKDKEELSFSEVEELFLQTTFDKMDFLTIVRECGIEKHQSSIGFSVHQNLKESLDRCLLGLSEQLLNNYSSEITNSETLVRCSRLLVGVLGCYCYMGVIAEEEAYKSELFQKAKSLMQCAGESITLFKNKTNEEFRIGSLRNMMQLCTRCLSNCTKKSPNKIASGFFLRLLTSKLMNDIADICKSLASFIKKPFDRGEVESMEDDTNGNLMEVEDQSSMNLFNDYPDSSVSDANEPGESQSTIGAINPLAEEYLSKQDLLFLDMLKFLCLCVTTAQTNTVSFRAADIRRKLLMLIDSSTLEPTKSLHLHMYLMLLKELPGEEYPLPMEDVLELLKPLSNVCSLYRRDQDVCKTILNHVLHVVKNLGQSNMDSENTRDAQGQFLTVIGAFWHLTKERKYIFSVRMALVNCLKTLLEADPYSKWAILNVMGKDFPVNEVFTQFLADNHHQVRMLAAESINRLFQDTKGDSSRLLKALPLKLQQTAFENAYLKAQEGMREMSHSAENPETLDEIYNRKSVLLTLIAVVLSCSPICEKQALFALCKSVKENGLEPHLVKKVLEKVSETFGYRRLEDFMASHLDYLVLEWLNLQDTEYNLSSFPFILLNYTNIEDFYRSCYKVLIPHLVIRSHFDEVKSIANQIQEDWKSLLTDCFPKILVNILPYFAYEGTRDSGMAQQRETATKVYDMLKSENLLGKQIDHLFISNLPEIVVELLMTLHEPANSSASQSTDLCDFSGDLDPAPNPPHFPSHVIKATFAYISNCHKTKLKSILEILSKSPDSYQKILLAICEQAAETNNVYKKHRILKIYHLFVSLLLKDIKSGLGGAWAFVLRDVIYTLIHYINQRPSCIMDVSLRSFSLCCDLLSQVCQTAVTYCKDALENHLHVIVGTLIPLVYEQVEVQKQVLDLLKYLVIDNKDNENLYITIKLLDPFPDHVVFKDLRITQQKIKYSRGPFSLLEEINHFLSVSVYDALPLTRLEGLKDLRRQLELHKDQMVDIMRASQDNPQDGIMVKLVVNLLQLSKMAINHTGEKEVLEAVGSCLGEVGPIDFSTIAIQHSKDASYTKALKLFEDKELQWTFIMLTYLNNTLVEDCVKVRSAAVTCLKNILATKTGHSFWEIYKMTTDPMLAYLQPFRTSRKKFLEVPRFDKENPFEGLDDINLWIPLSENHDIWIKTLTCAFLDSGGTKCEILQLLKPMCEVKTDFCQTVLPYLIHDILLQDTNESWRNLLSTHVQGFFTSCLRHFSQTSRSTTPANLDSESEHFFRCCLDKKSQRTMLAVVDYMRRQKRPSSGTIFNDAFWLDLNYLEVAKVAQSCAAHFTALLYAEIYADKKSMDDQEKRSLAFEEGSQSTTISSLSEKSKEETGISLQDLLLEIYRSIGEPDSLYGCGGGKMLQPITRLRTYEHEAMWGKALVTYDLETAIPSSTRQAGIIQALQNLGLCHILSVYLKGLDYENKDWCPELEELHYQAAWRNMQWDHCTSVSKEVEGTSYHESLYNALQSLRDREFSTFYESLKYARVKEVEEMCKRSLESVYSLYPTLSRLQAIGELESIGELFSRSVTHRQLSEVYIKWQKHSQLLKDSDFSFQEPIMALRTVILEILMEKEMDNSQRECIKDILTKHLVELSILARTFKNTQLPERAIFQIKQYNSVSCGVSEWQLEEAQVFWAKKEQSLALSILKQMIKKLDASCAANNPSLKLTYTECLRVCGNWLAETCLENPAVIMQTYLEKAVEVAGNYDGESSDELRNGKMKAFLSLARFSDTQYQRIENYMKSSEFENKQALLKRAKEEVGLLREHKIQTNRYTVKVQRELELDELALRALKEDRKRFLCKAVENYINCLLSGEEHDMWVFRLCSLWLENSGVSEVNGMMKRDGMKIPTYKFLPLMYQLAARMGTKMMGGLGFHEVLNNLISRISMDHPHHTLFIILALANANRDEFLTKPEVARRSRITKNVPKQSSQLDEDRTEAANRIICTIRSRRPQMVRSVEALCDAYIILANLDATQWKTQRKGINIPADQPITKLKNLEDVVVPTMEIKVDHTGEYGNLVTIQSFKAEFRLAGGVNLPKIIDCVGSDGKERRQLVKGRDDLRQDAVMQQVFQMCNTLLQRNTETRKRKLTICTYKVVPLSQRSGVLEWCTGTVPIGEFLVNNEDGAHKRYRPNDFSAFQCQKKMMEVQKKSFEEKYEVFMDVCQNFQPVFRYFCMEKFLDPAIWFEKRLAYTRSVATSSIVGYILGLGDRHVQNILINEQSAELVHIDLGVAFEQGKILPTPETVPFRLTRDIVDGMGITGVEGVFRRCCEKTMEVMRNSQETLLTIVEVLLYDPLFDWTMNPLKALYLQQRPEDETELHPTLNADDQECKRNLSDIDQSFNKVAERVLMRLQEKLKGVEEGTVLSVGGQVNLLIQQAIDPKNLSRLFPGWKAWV

How the values were obtained:
[1] = target: DNA-PKcs (Homo sapiens, UniProt P78527); conditions: wortmannin at high concentrations; Hartley et al. (1995), Smith and Jackson (1999); cited from earlier work
[2] = test system: bone marrow derived macrophages (BMDM); assay: IL-6 and IL-12 levels in BMDM culture supernatants by ELISA; format: cell-based, mice; conditions: Wm at high concentrations (>100 nM)
Method: Ku70^−/− and Ku80^−/− mice and their wild-type (wt) control on the 129 genetic background were generated by Dr. G. Li and bred at Memorial Sloan-Kettering Cancer Center (MSKCC), New York, N.Y. BMDM from wt, Ku70^−/− and Ku80^−/− mice (MSKCC) were prepared as was previously published (Martin-Orozco et al. (1999) Int. Immunol. 11:1111), and maintained in DMEM with 10% FBS, antibiotics and 20% L-cell medium and cultured for about 10 days to allow them to mature. BMDM were seeded (2.5×10^5/well in triplicate) on 96-well plates and treated with LPS (10 μg/ml), ISS-ODN (5 μg/ml) or M-ODN (5 μg/ml).
BMDM (2.5×10^5/well) from wt, or Ku70^−/− and Ku80^−/− mice were treated with LPS (1 μg/ml), ISS-ODN (5 μg/ml) or M-ODN (5 μg/ml) for 24 hours. IL-6 (A) or IL-12 (B) levels in the supernatants were determined by ELISA. Results are means±S.D, of 5 separate experiments for wt and Ku70^−/− and 3 separate experiments for Ku80^−/− mice. (C) BMDM were incubated with LPS (10 μg/ml) or ISS-ODN (5 μg/ml) for 6.5 hours. Total RNA was isolated and analyzed for the presence of IL-6, IL-12 and GAPDH messages by a Northern blot assay, as described in Example 1. Results are means±S.D. of 5 separate experiments for wt and Ku70^−/− and 3 separate experiments for Ku80^−/− mice.
DNA-PKcs^−/− and their wt control mice on the 129 genetic background were generated by Dr. G. C. […]

[3] = target: ATM gene product (Homo sapiens, UniProt Q13315); conditions: Hartley et al.; Xu et al.; cited from earlier work
[4] = test system: IκB kinase (IKK) complex; assay: IKK kinase assay on IKK complex immunoprecipitated from treated BMDM (IκBα N-terminus substrate); format: cell-based, mice
Method: Kinase assays and immunoblotting were performed according to Li et al. ((1999) J. Exp. Med. 189:1839-1845). Briefly, BMDM were treated with ISS-ODN (5 μg/ml), M-ODN (5 μg/ml) on ps and po backbones as indicated, LPS-free bacterial DNA or methylated bacterial DNA (5 μg/ml), LPS-free calf thymus DNA (5 μg/ml), LPS (10 μg/ml) or TNFα (10 ng/ml) for the indicated time periods. Cell lysates were prepared and normalized by immunoblotting (IB) with anti-IKKα polyclonal antibodies (Santa Cruz, Santa Cruz Biotech Inc., Calif.), anti-IKKβ polyclonal antbodies (Santa Cruz) or anti-DNA-PKcs monoclonal antibodies (NeoMarker, Calif.). IκB kinase (IKK) complex or DNA-PK complex from 100 μg of the lysates were immunoprecipitated by anti-IKKα or by anti-DNA-PKcs antibodies. The kinase activities (KA) were determined by a kinase assay using the N-terminus of IκBα (for IKK) or the N-terminus of p53 (for DNA-PK) as a substrate as previously described. Wang et al. (1992) Proc. Natl. Acad. Sci. USA 89:4231-4235; Li et al.(1999), supra; and Hammarsten et al. (2000) J. Biol. Chem. 275:1541-1545.

| SMILES | DNA-PKcs enzymatic activity [1] | inhibition of the induction of IL-6 and IL-12 by ISS-ODN [2] | ATM kinase activity [3] | inhibition of IKK activation by PGDF ([4]; Wm at lower concentrations (50-100 nM)) | inhibition of IKK activation by ISS-ODN ([4]; wt BMDM, only high concentrations of Wm (250 nM and above)) |
| --- | --- | --- | --- | --- | --- |
| O=c1cc(N2CCOCC2)oc2c(-c3ccccc3)cccc12 [Ly, Ly294002, reference compound] | blocked | – | – | – | – |
| COC[C@H]1OC(=O)c2coc3c2[C@@]1(C)C1=C(C3=O)[C@@H]2CCC(=O)[C@@]2(C)C[C@H]1OC(C)=O [Wm, wortmannin, reference compound] | blocked | significantly inhibited | sensitive | significantly inhibited | significantly inhibited |
